No constants are given. Whether binding was seen depends on the method and setting. In cells and extracts the contact can be indirect. Some binding calls cover weakened binding; strength is not graded here.
Tests used:
[1] = molecular target: mouse CTLA-4 (WT, full length) (mouse) (UniProt P09793); assay: co-immunoprecipitation with anti-CTLA-4 from cotransfected JTAg cells, immunoblot
[2] = molecular target: mouse CTLA-4 (WT, full length) (mouse) (UniProt P09793); assay: co-immunoprecipitation with CTLA-4 mAb from cotransfected JTAg cells treated with DMSO, PP2 or PP3, immunoblot (FIG. 12)

By UniProt entry, the sequences of proteins in these tests, tags left out. Where a name states a change or a piece, a line headed by the entry shows the natural chain unless it says otherwise. Residues count along the entry.
UniProt P09793, residues 36-223: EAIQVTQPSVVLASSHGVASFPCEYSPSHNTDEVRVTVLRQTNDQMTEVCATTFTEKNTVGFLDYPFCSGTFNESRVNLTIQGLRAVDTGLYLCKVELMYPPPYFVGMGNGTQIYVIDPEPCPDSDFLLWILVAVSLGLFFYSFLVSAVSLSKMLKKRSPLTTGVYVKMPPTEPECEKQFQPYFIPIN
UniProt P24723: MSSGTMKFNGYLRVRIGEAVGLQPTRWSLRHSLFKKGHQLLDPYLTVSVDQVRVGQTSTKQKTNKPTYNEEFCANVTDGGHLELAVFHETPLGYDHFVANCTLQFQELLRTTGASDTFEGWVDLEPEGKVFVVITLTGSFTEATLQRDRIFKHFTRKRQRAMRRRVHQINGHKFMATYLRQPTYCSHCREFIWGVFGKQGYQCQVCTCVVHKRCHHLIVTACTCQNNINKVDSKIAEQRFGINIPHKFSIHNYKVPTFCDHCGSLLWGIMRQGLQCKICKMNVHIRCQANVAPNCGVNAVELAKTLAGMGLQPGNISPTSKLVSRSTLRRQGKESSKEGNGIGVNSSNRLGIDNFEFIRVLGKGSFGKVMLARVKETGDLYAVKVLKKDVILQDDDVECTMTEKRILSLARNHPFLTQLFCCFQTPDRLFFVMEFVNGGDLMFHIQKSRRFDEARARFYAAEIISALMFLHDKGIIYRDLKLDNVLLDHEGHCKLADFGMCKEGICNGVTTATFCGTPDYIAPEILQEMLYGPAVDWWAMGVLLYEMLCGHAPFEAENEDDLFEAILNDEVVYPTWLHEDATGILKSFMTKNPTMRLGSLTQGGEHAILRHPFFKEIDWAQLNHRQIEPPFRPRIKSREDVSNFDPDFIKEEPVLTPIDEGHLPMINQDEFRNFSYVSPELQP

In the case of “Xpress-tagged WT PKCη (full-length human Prkch) (from UniProt P24723 1-683) (enzyme)”, the binding [1] is reported as “binds” and the binding [2] is reported as “binds”.

Reference: patent US20160075753A1, “MODULATION OF REGULATORY T CELL FUNCTION VIA PROTEIN KINASE C-eta” (LA JOLLA INSTITUTE FOR ALLERGY AND IMMUNOLOGY, priority 2013, published 2016)
